Measurements reported in paper PMC11472053, “Structural basis of DNA recognition by BEN domain proteins reveals a role for oligomerization in unmethylated DNA selection by BANP” (Nucleic Acids Research, 2024).
Results are given in words; binding and its absence hold for the method and conditions named. Some results given as binding are weak or reduced against the parent protein; the word gives no strength.

B1: full-length BANP (natural protein, human, UniProt Q8N9N5 1-519, looked up)
chain: MMSEHDLADVVQIAVEDLSPDHPVVLENHVVTDEDEPALKRQRLEINCQDPSIKTICLRLDSIEAKLQALEATCKSLEEKLDLVTNKQHSPIQVPMVAGSPLGATQTCNKVRCVVPQTTVILNNDRQNAIVAKMEDPLSNRAPDSLENVISNAVPGRRQNTIVVKVPGQEDSHHEDGESGSEASDSVSSCGQAGSQSIGSNVTLITLNSEEDYPNGTWLGDENNPEMRVRCAIIPSDMLHISTNCRTAEKMALTLLDYLFHREVQAVSNLSGQGKHGKKQLDPLTIYGIRCHLFYKFGITESDWYRIKQSIDSKCRTAWRRKQRGQSLAVKSFSRRTPNSSSYCPSEPMMSTPPPASELPQPQPQPQALHYALANAQQVQIHQIGEDGQVQVGHLHIAQVPQGEQVQITQDSEGNLQIHHVGQDGQLLEATRIPCLLAPSVFKASSGQVLQGAQLIAVASSDPAAAGVDGSPLQGSDIQVQYVQLAPVSDHTAGAQTAEALQPTLQPEMQLEHGAIQIQ
notes: BANP, human, full length; also called SMAR1; source: E. coli Rosetta (DE3), purified (nickel column, HiTrap Q, gel filtration)
B2: BEN domain of BANP (domain or fragment, UniProt Q8N9N5 205-325)
chain: ITLNSEEDYPNGTWLGDENNPEMRVRCAIIPSDMLHISTNCRTAEKMALTLLDYLFHREVQAVSNLSGQGKHGKKQLDPLTIYGIRCHLFYKFGITESDWYRIKQSIDSKCRTAWRRKQRG

Tests used:
[1] = molecular target: full-length BANP (human) (UniProt Q8N9N5); assay: SEC; gel filtration profiles of purified BANP and its truncations, compared with ferritin (440 kDa) and aldolase (158 kDa); column and buffer of the analytical run not told; both purified
[2] = molecular target: BEN domain of BANP (human) (UniProt Q8N9N5); assay: as above

Binder | binding [1] | binding [2]
B1 | binds | –
B2 | – | no binding
